In PubChem BioAssay AID1487 (National Center for Advancing Translational Sciences (NCATS), 2009):
Out of some 200,000 compounds screened, about 25 (0.01%) were called active. This list was built around the results that the source calls inconclusive (neither active nor inactive); the mix of calls is not that of the screen. Calls follow the shape of the dose curve; as a rule, active = well fitted inhibition curve with a large enough effect in the signal ratio, with a control signal flat (not every such curve was filed as active); inconclusive = small, poorly fitted or top-dose-only effect, or effect the other way, or a change in a side signal; inactive = flat fitted curve, though single readings scatter; the % refers to the signal ratio. Potencies beside an inconclusive call are fits to weak or partial responses and may not hold up.

Test: qHTS Assay for Modulators of Lamin A Splicing
Conditions: HeLa LMNA splicing GFP/RFP minigene ratio, 48 h; ratio change, negative = inhibition: at 46.1 µM (top of the series) unless noted
Outline: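 S3 HeLa cells stably expressing lamin A-EGFP splicing minigene plus DsRed2, 600 cells/well, 48 h compound exposure at 37C. Laser-scanning cytometry; analysed as GFP (500-530 nm)/RFP (575-640 nm) total intensity ratio; 0.5% DMSO vehicle.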
% is scaled to controls: 0 for no effect and ±100 for the full control effect; potency is read from the fitted curve at half-maximal effect.

| Structure (SMILES) | ratio change, negative = inhibition | Potency |
| --- | --- | --- |
| O=C(COC(=O)c1ccc(-c2ccc([N+](=O)[O-])cc2)o1)NC(=O)NC12CC3CC(CC(C3)C1)C2 | inconclusive: 10.8% | – |
| C=C(C)CSC1=C(C#N)C(c2ccsc2)CC(=O)N1 (stereo unspecified) | inactive: -1.61% | – |
| Cc1ccc(N=Cc2nc(-c3ccco3)oc2O)cc1 | inactive: 7.83% | – |
| COC(=O)c1ccc(/C=C/C(=O)c2cccc(OC)c2)cc1 | – | inconclusive: 28.2 µM [cytotoxic, single point] |
| COc1cccc(CNC(=O)c2ccc3c(c2)N(C)C(=O)C2CCCCN32)c1 (stereo unspecified) | inconclusive: -8.13% [at 46 µM] | – |
| CCN(CC)S(=O)(=O)c1cc(NC(=O)CCCOc2ccc(C(C)=O)cc2)ccc1C | – | inconclusive: 12.6 µM [fluorescent, partial curve] |
| CNS(=O)(=O)c1cc(-c2nn3c(C)nnc3c3ccccc23)ccc1C | – | inconclusive: 10 µM [inhibitor, partial curve] |
| Cc1ccccc1Cc1n[nH]c(=S)n1N | inactive: -5.25% | – |
| CCOc1ccccc1NC(=O)Cc1csc(COc2cccc(C)c2)n1 | inconclusive: -5.99% [at 46 µM] | – |
| CC(=O)c1cccc(Nc2ncnc3c2cnn3C)c1 | inactive: -0.143% [at 46 µM] | – |
| COc1ccc(C=NCC2COc3ccccc3O2)cc1OC (stereo unspecified) | inconclusive: 14.3% | – |
| CC1CCN(S(=O)(=O)c2ccc(C(=O)Nc3nc4ccc(F)cc4s3)cc2)CC1 | inactive: -0.7% [at 46 µM] | – |
| COC(=O)Cc1cc(=O)[nH]c(/N=C(\N)Nc2ccc(C)cc2)n1 | inconclusive: 1.66% | – |
| CN(Cc1cnccn1)C(=O)CC1C(=O)NCCN1Cc1cccc(Oc2ccccc2)c1 (stereo unspecified) | inconclusive: -1.41% [at 46 µM] | – |
| CCC1Cc2c(nc(N)c3c(N)nc(N4CCOCC4)c(C#N)c23)O1 (stereo unspecified) | inconclusive: -35.4% [at 46 µM] | – |
| O=C(Cc1ccc(Cl)cc1)Nc1ncccn1 | inconclusive: 16.4% [at 46 µM] | – |
| Cc1nnc(SCc2ccc(C(=O)Nc3cc(Cl)ccc3C)cc2)s1 | inconclusive: -36.9% | – |
| COc1cc(-c2ccc(NC(=O)NC3CC3)c(OC)c2)ccc1NC(=O)NC1CC1 | – | inconclusive: 6.31 µM [inhibitor, partial curve] |
| CCOc1ccc(NC(=O)CN2CCN(CC(=O)Nc3ccc(F)c(F)c3)CC2)cc1 | inactive: -3.3% | – |
| Cc1cc(Br)cc2c(C(=O)Nc3c(C)n(C)n(-c4ccccc4)c3=O)cc(-c3cccs3)nc12 | – | inconclusive: 35.5 µM [falling, single point] |
| Cc1cc(OCc2ccc(C(=O)NN=C3CCCC3)cc2)ccc1Cl | inconclusive: -48.5% | – |

| Structure (SMILES) | ratio change, negative = inhibition | Potency |
| --- | --- | --- |
| COc1ccc(OCc2ccc(-c3nc(C#N)c(NCc4ccccc4)o3)o2)cc1 | inconclusive: 16.2% [at 46 µM] | – |
| COc1ccc(OC)c(NC(=O)C(=O)N/N=C/c2ccccc2[N+](=O)[O-])c1 | inactive: 1.17% [at 0.0737 µM] | – |
| CCCOc1c(OC)cccc1C1CC(=O)Nc2cc(OC)c(OC)c(OC)c21 (stereo unspecified) | – | inconclusive: 12.6 µM [falling, partial curve, poor fit] |
| Cc1ccc(C)c(NC(=O)CCC(=O)N/N=C/c2cc([N+](=O)[O-])ccc2O)c1 | inconclusive: -25.6% [at 46 µM] | – |
| O=C(NCc1cccc(F)c1)C1CCCN(C(=O)N2CCOc3ccccc32)C1 (stereo unspecified) | inconclusive: 13.4% [at 46 µM] | – |
| CC1CN(C(=O)N2CCC(C(=O)NCc3cccs3)CC2)c2cc(Cl)ccc2O1 (stereo unspecified) | inactive: -19.6% [at 46 µM] | – |
| O=C(N/N=C/c1ccc2c(c1)OCO2)c1cc(-c2ccncc2)nc2ccccc12 | inconclusive: -29.8% | – |
| COC(=O)c1sccc1NC(=S)N1C(C)CCCC1C (stereo unspecified) | inactive: -2.75% [at 46 µM] | – |
| Cc1ccc(-n2nc3c(c2NC(=O)c2c(-c4ccccc4Cl)noc2C)CS(=O)(=O)C3)c(C)c1 | inactive: -6.86% | – |
| COCc1[nH]nc2c1C(c1cc(OC)c(O)c(OC)c1)C(C#N)=C(N)O2 (stereo unspecified) | inactive: 0.483% | – |
| CCOC(=O)C1CCN(C(c2ccc(SC)cc2)c2c(O)cc(C)n(Cc3ccco3)c2=O)CC1 (stereo unspecified) | inconclusive: -17% [at 46 µM] | – |
| COc1ccc(/C=C/c2nnc(NC(=O)c3ccco3)s2)cc1 | inconclusive: -6.66% [at 46 µM] | – |
| CCOC(=O)C(=O)N1CCN(c2ccccc2OC)CC1 | inconclusive: 0.735% [at 46 µM] | – |
| CC(C)(Oc1ccc(CCNC(=O)c2ccc(Cl)cc2)cc1)C(=O)O | inconclusive: -35.6% [at 22.9 µM] | – |
| CC(C)CC(COCc1cccc(Cl)c1)N1CCN(C(=O)c2cccc(C(F)(F)F)c2)CCC1=O (stereo unspecified) | inconclusive: -41.6% | – |
| COc1ccccc1CCNC(=O)c1ccc(C)o1 | inactive: 13.4% | – |
| NCCCCC(=O)O | inconclusive: 31.2% [at 46 µM] | – |
| CC(CCC(=O)O)C1CCC2C3C(O)C[C@@H]4CC(O)CC[C@@]4(C)C3CC(O)[C@]12C (stereo partly specified) | inconclusive: -18.1% | – |
| CCOC(=O)C1(CC2CCCCO2)CCN(C(=O)Nc2ccccc2CC)CC1 (stereo unspecified) | inconclusive: 12.8% [at 46 µM] | – |
| Cc1ccc(C=Nc2ccccc2C(N)=O)o1 | inactive: 23% | – |
| O=C(Cn1c(=O)nc(-c2ccccc2)c2ccccc21)NCCc1ccc(Cl)cc1 | inconclusive: -24.7% [at 46 µM] | – |

| Structure (SMILES) | ratio change, negative = inhibition | Potency |
| --- | --- | --- |
| COc1cccc(N2C(=O)C(CC(=O)Nc3ccccc3)N(C3CCCCC3)C2=O)c1 (stereo unspecified) | inconclusive: -4.55% | – |
| CNc1nc(OCC#N)nc(N2CCCCC2)n1 | inconclusive: -20% [at 46 µM] | – |
| COc1ccc(-c2cn3nc(N4CCCC(C(=O)Nc5cc(C)ccc5C)C4)sc3n2)cc1 (stereo unspecified) | inactive: -0.938% [at 46 µM] | – |
| O=C(NC1=NCCS1)c1sc2cc(F)ccc2c1Cl | inactive: -8.5% | – |
| c1ccc(OCc2nn3c(Cn4cnc5ccccc54)nnc3s2)cc1 | inactive: -15.2% | – |
| O=C(O)CCc1nc(-c2ccccc2)c(-c2ccccc2)o1 | inconclusive: -10.3% | – |
| c1ccc(CN2CCN(c3nc4ccccc4n4cnnc34)CC2)cc1 | inactive: 4.58% | – |
| Clc1ccc2c(c1)C(N1CCNCC1)=Nc1ccccc1O2 | inconclusive: -1.92% | – |
| OCCN(CCO)c1ccc(C(c2ccccc2Cl)c2ccc(N(CCO)CCO)cc2Cl)c(Cl)c1 | inconclusive: -30.6% | – |
| CCCCOc1ccc(C(=O)NCCc2csc(-c3cccc(F)c3)n2)cc1 | inconclusive: -24.9% [at 46 µM] | – |
| Cc1nnc(NC(=O)CSc2n[nH]c(-c3ccccc3)n2)s1 | inconclusive: 7.39% [at 46 µM] | – |
| O=C(OCCCCN1C(=O)c2ccccc2C1=O)c1n[nH]c2ccccc12 | inactive: -16.2% | – |
| CC1Cc2cc(S(=O)(=O)NCCc3ccc(Cl)cc3)ccc2N1C(=O)C1CCC1 (stereo unspecified) | inactive: -10.8% [at 46 µM] | – |
| CC1=C(C(=O)N2CCOCC2)C(c2ccc(O)cc2)NC(=S)N1 (stereo unspecified) | inactive: 9.7% | – |
| NC(=O)NC(=O)CSc1ccccc1 | inconclusive: -10.6% [at 46 µM] | – |
| CCn1ccc2cc(S(=O)(=O)N3CCC(C(=O)NCCc4ccccc4Cl)CC3)ccc21 | inactive: -12.7% [at 46 µM] | – |
| CCN1C(=O)CC(C(=O)Nc2ccc(F)cc2)SC1=Nc1cccc(OC)c1 (stereo unspecified) | inactive: -29.6% | – |
| COc1cccc(C(=O)N/N=C(\CC(C)C)c2ccccc2)c1 | inconclusive: 0.779% | – |
| CCN(c1ccc(NC(=O)c2ccc(Cl)nc2)cc1)C(C)C | inconclusive: -31.3% [at 46 µM] | – |
| CCOc1cccc(/C=N/NC(=S)NCCN2CCOCC2)c1O | inconclusive: -15.1% [at 9.22 µM] | – |
| O=c1oc2c(CN3CCCC3)c(O)ccc2cc1-c1ccccc1 | inconclusive: -11.4% [at 46 µM] | – |

| Structure (SMILES) | ratio change, negative = inhibition | Potency |
| --- | --- | --- |
| COc1ccc(CC(=O)Nc2ccc(N3CCCCC3)cc2)cc1 | inconclusive: -11.6% [at 46 µM] | – |
| COc1ccc(-c2ccc(C#N)c(SCC(=O)NCCc3ccccc3)n2)cc1OC | inactive: -7.69% | – |
| Brc1ccccc1-c1nnc2sc(-c3ccc4c(c3)OCCO4)nn12 | inconclusive: 22% | – |
| COc1ccccc1-c1nnc(NC(=O)C(C)SC2=NCCS2)s1 (stereo unspecified) | – | inconclusive: 11.2 µM [falling, partial curve] |
| O=C(CSc1ccc2c(c1)OCCO2)NCC1CCCO1 (stereo unspecified) | inactive: 6.04% | – |
| CCNc1ncc2nc(CCc3ccccc3)c(=O)n(C3CC3)c2n1 | inactive: -12.6% | – |
| O=C(COc1ccccc1[N+](=O)[O-])N1CCC(c2nc3ccccc3o2)CC1 | inconclusive: 22.7% [at 46 µM] | – |
| CC1CCC(NC(=O)c2ccc(/C=C3\Oc4ccccc4N(C)C3=O)cc2)CC1 (stereo unspecified) | – | inconclusive: 0.0022 µM [inhibitor, full curve, poor fit] |
| Cc1ccc(-n2ncc3c(N(CC(C)C)CC(C)C)ncnc32)c(C)c1 | – | inconclusive: 35.5 µM [falling, single point] |
| COc1ccc(OC)c(-n2c(=O)c3ccccc3c3ccccc3c2=O)c1 | inconclusive: -31.5% | – |
| CC(CNC(=O)C1CCN(S(=O)(=O)c2ccc3c(ccn3C)c2)CC1)c1ccccc1 (stereo unspecified) | inconclusive: 0.723% [at 46 µM] | – |
| O=C(c1ccccn1)N(Cc1cccs1)C1(C(=O)NC2CCCCC2)CCCCC1 | inconclusive: -7.42% [at 9.22 µM] | – |
| Cc1c(NS(=O)(=O)c2ccc(Cl)c(C(=O)OC(C)C(=O)N3CCOCC3)c2)c(=O)n(-c2ccccc2)n1C (stereo unspecified) | inactive: -3.11% [at 46 µM] | – |
| O=C(CN1C(=O)/C(=C/c2cccc(Br)c2)SC1=S)Nc1cccnc1 | inconclusive: -21.9% [at 46 µM] | – |
| Nc1nc(CSc2ccc(Cl)cc2)nc(N2CCCCC2)n1 | inconclusive: 17.9% [at 46 µM] | – |
| O=C(Cn1c(SCc2ccccc2F)nc2cccnc21)Nc1ccc(F)c(Cl)c1 | – | inconclusive: 25.1 µM [inhibitor, single point] |
| Cc1cc(C)cc(Nc2c3c(nc4ncnn24)CCC3)c1 | inconclusive: 86% [at 46 µM] | – |
| Cc1ccc(C(=O)N2CCc3cc(CNC(=O)CCc4ccccc4)ccc32)cc1 | inconclusive: -23.5% [at 46 µM] | – |

Shown with bars between the fields: entries from further up
Structure (SMILES) | ratio change, negative = inhibition | Potency
Cc1ccc(-n2nc3c(c2NC(=O)c2c(-c4ccccc4Cl)noc2C)CS(=O)(=O)C3)c(C)c1 | inactive: -6.86% | –
COCc1[nH]nc2c1C(c1cc(OC)c(O)c(OC)c1)C(C#N)=C(N)O2 (stereo unspecified) | inactive: 0.483% | –
CCOC(=O)C1CCN(C(c2ccc(SC)cc2)c2c(O)cc(C)n(Cc3ccco3)c2=O)CC1 (stereo unspecified) | inconclusive: -17% [at 46 µM] | –
COc1ccc(/C=C/c2nnc(NC(=O)c3ccco3)s2)cc1 | inconclusive: -6.66% [at 46 µM] | –
CCOC(=O)C(=O)N1CCN(c2ccccc2OC)CC1 | inconclusive: 0.735% [at 46 µM] | –
